Experimental data published in PubChem BioAssay AID540276 (National Center for Advancing Translational Sciences (NCATS), 2011).
Screen size: about 300,000 compounds; about 5,400 (1.8%) were called active. Inconclusive means that the source gave no clear call. Such entries were picked first, then a sample of the others. The call rests on the fitted dose curve; tested in HEK293 cells. Potencies beside an inconclusive call are fits to weak or partial responses and may not hold up.

test: qHTS for inhibitors of binding or entry into cells for Marburg Virus; settings: Marburg virus pseudotyped entry inhibition, cell reporter; series mostly up to 37.8 µM
Potency means the concentration at half of the fitted maximal effect.

SMILES	Potency
O=C(CN1C(=O)NC2(CCc3ccccc32)C1=O)c1ccc(F)cc1 (centres undefined)	inconclusive: 0.355 µM [inhibitor, partial curve, poor fit]
O=C(Nc1ccc2oc(-c3ccncc3)nc2c1)c1ccc([N+](=O)[O-])o1	inconclusive: 10 µM [inhibitor, partial curve, poor fit]
c1ccc2c(c1)CCCN2Cc1nnc2n1CCCCC2	inactive
O=[N+]([O-])c1ccccc1/C=N/NC1=NCCCCC1	inconclusive: 15.8 µM [activator, partial curve, poor fit]
FC(F)(F)c1cc(Oc2ccc(Cl)cc2)ncc1-c1nnc(-c2ccc(Cl)cc2)o1	inconclusive: 4.47 µM [inhibitor, single point]
CCN(CC)C(=O)c1cc(-c2ccc(Cl)cc2)on1	inconclusive: 14.1 µM [activator, single point]
COc1ccc(CC(=O)OCC(=O)c2ccc(OC)cc2)cc1	inactive
CCC(=O)N1CCc2cc(S(=O)(=O)N3CCN(c4ccccn4)CC3)ccc21	inconclusive: 12.6 µM [inhibitor, partial curve, poor fit]
CCOC(=O)c1[nH]c2ccc(OC)cc2c1NC(=S)N1CCN(c2cccc(Cl)c2)CC1	inactive
Cc1cc(C(=O)N/N=C/c2cccnc2)c(C)o1	inactive
CC(C)n1c(CSCc2ccc(Cl)cc2Cl)n[nH]c1=S	inconclusive: 8.91 µM [inhibitor, partial curve, poor fit]
Cc1cc(/C=C(\C#N)C(=O)NCc2ccco2)c(C)[nH]1	inactive
Cc1ccccc1Cn1cccc1/C=C1/C(=N)N2C=CSC2=NC1=O	inconclusive: 35.5 µM [inhibitor, single point]
Cc1ccc(C(=O)NCC(=O)OCC(=O)N2CC(C)OC(C)C2)cc1 (centres undefined)	inconclusive: 31.6 µM [activator, single point]
Cc1occc1-c1nnc(SCC(=O)Nc2nc(C(C)(C)C)cs2)o1	inconclusive: 29.1 µM [inhibitor, single point]
C=CCN1C(=O)/C(=C\c2cccs2)C(C(=O)OC)=C1C	inconclusive: 35.5 µM [inhibitor, single point]
CN(C)C(CN1C(=O)C2CC=CCC2C1=O)c1cn(C)c2ccccc12 (centres undefined)	inconclusive: 35.5 µM [inhibitor, single point]
CC(C)n1c(CNC(=O)c2ccccc2F)nnc1SCC(=O)NC1CCCCC1	inconclusive: 22.4 µM [activator, single point]
Cc1ccccc1NC(=O)CSc1ccncc1	inconclusive: 25.9 µM [inhibitor, single point]
CCOC(=O)c1cc2c(s1)-c1ccccc1CC2	inconclusive: 0.501 µM [activator, full curve, poor fit]
O=C(c1sc(N2CCOCC2)nc1-c1ccccc1)N1CCCCC1	inconclusive: 0.562 µM [activator, partial curve, poor fit]
CCC1CCCCN1c1ccc([N+](=O)[O-])cc1/C=N/NC(=O)Cn1c2ccccc2c(=O)c2ccccc21 (centres undefined)	active: 0.891 µM

SMILES	Potency
Cc1nn(-c2cccc(Cl)c2)c2nc(C(F)(F)F)[nH]c(=O)c12	active: 10 µM
O=C(CN1CCCN(S(=O)(=O)c2ccc(Br)s2)CC1)Nc1ccc(Cl)cc1	inconclusive: 29.1 µM [inhibitor, single point]
Cc1ccc2[nH]c(=O)c(COC(=O)c3ccccn3)cc2c1	inconclusive: 1 µM [activator, partial curve, poor fit]
O=C(Nc1ccncc1)OCc1ccccc1	inconclusive: 1.12 µM [inhibitor, single point]
COc1ccc(NC(=O)c2cnc[nH]2)cc1	inconclusive: 3.16 µM [activator, partial curve, poor fit]
Nc1nc(SCc2ccccc2)cc(SCc2ccccc2)n1	inconclusive: 1 µM [activator, full curve, poor fit]
Cc1nc2ccccc2c(=O)n1Nc1cccc(Cl)c1	inactive
COc1ccc(S(=O)(=O)c2cc(NS(=O)(=O)c3ccc(Cl)cc3)c(C)c(C)c2O)cc1	inactive
Nc1c(N(Cc2ccco2)C(=O)c2ccc(Cl)cc2)c(=O)[nH]c(=O)n1Cc1ccccc1	inactive
CCN(Cc1ccc2c(c1)OCO2)C(=O)CSc1nc(C)nc2sc(C)c(C)c12	inconclusive: 20 µM [inhibitor, single point]
Cc1nc(SCC(=O)Nc2ccccc2F)[nH]c(=O)c1Cc1ccccc1	inactive
CC(=O)N=c1c(C#N)cc2c(=O)n3ccccc3nc2n1Cc1ccccc1	inactive
CC(=O)Oc1cc2oc(=O)cc(C)c2cc1OC(C)=O	inconclusive: 13 µM [inhibitor, single point]
COCCNC(=O)[C@H]1N2C(=O)c3c(ccc(OC)c3OC)C2SC1(C)C (some centres undefined)	inactive
O=C1C2=C(NC(=S)NC2c2ccc(Cl)cc2)NC(c2ccc(Cl)cc2)N1c1ccc(Cl)cc1 (centres undefined)	active: 16.4 µM
COc1ccc(CCNC(=O)CSc2nnc(CNC(=O)c3c(F)cccc3Cl)o2)cc1OC	inconclusive: 0.708 µM [activator, partial curve, poor fit]
O=C(O)CSc1cc(NS(=O)(=O)c2ccc(Cl)cc2)c2ccccc2c1O	inconclusive: 15.8 µM [inhibitor, single point]
COCCNc1nc(-c2cc3ccccc3o2)cs1	inconclusive: 14.1 µM [inhibitor, single point]
O=C(COc1ccccc1[N+](=O)[O-])Nc1ccc(-c2nc3ccccc3s2)cc1	inconclusive: 1 µM [activator, full curve, poor fit]
CCC1(c2ccc(N)cc2)CCC(=O)NC1=O (centres undefined)	inconclusive: 0.02 µM [inhibitor, full curve, poor fit]
CCCN1C(=O)c2ccccc2NC1c1ccc(C)cc1 (centres undefined)	inconclusive: 7.08 µM [inhibitor, partial curve, poor fit]
COc1ccc(/C=N/n2c(-c3ccccc3)n[nH]c2=S)cc1	inactive

Ordered by SMILES length (low to high): part of the list above
SMILES	Potency
CCC1(c2ccc(N)cc2)CCC(=O)NC1=O (centres undefined)	inconclusive: 0.02 µM [inhibitor, full curve, poor fit]
Nc1nc(SCc2ccccc2)cc(SCc2ccccc2)n1	inconclusive: 1 µM [activator, full curve, poor fit]
COc1ccc(/C=N/n2c(-c3ccccc3)n[nH]c2=S)cc1	inactive
Nc1c(N(Cc2ccco2)C(=O)c2ccc(Cl)cc2)c(=O)[nH]c(=O)n1Cc1ccccc1	inactive
